Experimental data taken from the supplement of paper PMC6411743.
± gives the standard deviation of the averaged measurements. Some of the results follow.

By UniProt entry, the sequences of proteins in these tests, tags left out. Where a name states a change or a piece, a line headed by the entry shows the natural chain unless it says otherwise.
UniProt Q9H857: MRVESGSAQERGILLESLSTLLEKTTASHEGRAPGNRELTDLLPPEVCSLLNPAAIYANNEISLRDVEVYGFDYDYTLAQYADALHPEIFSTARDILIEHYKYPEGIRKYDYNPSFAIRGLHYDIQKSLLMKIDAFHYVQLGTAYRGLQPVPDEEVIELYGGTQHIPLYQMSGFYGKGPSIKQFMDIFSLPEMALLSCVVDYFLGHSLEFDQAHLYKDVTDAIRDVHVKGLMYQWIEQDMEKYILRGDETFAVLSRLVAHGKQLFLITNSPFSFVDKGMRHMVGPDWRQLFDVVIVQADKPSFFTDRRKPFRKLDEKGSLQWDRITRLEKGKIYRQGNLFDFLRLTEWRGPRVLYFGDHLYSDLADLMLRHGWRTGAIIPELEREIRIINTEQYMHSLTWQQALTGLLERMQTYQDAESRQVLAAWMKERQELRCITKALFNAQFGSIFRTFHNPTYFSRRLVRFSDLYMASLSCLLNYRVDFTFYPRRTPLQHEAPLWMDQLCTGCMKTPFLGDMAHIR
UniProt Q9NP61: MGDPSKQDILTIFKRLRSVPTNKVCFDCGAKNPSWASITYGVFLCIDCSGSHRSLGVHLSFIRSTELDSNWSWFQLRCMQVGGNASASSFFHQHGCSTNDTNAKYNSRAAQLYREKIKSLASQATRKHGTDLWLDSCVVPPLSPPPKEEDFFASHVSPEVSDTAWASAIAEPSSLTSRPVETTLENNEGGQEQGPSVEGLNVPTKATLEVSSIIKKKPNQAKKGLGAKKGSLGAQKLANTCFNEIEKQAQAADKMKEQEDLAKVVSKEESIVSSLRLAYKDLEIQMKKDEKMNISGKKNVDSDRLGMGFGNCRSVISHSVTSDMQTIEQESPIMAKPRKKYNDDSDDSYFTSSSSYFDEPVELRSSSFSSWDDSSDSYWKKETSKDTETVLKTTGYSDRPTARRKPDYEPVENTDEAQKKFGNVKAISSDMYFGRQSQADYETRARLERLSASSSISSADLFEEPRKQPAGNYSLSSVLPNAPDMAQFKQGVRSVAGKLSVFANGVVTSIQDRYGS
UniProt Q9H1K1: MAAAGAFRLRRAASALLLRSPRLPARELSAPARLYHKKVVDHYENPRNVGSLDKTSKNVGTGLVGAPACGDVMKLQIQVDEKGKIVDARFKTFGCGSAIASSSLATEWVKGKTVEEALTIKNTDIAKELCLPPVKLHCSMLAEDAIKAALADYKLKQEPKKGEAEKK
UniProt Q9NS93: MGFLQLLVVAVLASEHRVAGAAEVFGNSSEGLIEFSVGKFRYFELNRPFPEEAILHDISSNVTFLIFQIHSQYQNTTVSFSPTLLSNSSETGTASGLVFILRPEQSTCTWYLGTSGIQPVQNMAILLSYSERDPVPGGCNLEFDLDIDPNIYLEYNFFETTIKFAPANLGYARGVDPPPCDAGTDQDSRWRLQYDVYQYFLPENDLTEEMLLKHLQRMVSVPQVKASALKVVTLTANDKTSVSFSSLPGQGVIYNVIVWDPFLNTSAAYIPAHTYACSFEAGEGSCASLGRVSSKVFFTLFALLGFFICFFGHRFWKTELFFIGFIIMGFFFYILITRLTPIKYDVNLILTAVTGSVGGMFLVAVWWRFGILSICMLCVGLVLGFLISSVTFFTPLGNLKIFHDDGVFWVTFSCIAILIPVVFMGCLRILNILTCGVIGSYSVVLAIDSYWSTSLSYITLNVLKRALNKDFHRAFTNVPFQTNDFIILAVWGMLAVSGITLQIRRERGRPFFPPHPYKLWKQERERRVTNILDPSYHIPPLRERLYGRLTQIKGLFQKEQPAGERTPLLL
UniProt Q9NPA3, whole entry: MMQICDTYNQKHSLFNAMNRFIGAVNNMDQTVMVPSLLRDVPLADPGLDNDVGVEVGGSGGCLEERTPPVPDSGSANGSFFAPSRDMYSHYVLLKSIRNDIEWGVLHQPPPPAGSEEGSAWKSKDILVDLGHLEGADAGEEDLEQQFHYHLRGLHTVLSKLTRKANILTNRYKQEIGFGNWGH
UniProt Q9NRN7: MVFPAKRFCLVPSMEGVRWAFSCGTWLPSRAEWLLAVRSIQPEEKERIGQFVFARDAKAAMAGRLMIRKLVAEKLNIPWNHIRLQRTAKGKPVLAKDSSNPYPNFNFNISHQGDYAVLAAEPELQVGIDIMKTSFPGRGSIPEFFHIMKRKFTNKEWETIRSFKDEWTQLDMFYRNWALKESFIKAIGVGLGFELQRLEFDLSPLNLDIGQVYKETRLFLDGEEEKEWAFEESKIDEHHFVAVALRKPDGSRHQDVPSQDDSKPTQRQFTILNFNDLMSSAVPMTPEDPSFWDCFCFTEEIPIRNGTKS
UniProt Q9HBI0: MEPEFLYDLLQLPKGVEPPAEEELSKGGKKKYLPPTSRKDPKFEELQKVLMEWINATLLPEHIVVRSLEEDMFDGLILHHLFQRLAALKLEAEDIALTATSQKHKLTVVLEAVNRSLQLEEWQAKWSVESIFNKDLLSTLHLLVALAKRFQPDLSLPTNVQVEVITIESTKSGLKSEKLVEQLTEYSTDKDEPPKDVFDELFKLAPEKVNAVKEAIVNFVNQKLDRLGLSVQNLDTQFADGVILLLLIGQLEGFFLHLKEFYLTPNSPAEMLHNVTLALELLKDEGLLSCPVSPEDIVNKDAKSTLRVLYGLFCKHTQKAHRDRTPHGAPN
UniProt Q9H5Q4: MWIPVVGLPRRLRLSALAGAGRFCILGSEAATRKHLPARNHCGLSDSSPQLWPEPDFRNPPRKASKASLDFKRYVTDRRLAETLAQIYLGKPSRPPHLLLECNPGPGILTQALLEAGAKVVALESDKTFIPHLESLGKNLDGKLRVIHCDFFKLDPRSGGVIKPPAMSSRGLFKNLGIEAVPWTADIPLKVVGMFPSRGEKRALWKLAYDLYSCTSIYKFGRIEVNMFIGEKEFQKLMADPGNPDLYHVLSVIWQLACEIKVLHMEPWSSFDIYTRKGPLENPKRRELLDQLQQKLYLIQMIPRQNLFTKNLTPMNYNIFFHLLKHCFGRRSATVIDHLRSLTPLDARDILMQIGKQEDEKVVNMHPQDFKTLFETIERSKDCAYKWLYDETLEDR
UniProt Q9H3S7: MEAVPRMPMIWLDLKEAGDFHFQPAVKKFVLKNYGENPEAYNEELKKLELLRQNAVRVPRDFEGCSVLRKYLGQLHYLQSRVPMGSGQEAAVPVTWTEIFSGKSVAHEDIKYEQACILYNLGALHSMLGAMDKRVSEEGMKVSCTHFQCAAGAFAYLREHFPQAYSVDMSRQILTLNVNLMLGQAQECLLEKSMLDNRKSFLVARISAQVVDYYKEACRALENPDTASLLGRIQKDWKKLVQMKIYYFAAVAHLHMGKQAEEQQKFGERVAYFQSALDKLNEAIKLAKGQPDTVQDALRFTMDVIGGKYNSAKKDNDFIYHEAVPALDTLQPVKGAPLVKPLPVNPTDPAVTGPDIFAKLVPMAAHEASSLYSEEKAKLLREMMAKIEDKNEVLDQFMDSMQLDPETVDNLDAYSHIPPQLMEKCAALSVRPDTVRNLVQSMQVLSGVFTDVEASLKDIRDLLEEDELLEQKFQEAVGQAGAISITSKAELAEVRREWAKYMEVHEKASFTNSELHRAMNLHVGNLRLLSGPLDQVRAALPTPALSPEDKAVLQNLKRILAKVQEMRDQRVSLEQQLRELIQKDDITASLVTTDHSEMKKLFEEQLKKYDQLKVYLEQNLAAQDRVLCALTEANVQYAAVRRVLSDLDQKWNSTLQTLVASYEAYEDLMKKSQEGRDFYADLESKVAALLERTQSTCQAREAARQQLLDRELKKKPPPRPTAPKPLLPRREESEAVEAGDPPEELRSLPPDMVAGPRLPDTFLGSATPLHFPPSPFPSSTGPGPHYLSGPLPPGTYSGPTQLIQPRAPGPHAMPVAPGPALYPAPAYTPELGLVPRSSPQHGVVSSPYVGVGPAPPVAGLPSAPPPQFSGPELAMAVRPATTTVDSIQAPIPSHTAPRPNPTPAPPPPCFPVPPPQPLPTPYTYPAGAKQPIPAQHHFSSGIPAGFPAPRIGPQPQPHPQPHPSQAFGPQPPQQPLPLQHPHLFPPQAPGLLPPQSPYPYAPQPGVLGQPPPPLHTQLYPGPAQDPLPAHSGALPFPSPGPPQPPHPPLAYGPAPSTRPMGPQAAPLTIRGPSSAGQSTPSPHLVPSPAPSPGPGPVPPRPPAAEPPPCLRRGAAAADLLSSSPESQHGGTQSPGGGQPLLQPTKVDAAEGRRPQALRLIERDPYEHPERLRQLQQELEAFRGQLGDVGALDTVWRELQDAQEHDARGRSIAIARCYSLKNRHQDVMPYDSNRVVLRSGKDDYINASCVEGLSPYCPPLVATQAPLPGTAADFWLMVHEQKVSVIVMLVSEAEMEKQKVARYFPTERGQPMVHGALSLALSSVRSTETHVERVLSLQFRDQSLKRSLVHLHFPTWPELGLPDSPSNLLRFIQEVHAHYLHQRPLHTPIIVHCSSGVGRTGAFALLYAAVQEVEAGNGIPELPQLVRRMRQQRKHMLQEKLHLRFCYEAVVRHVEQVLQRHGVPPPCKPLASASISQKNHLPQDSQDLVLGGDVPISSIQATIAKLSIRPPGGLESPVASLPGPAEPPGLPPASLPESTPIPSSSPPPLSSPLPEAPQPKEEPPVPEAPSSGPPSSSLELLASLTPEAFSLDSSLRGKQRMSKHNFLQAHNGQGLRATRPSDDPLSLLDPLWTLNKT
UniProt Q9NSY1, whole entry, looked up: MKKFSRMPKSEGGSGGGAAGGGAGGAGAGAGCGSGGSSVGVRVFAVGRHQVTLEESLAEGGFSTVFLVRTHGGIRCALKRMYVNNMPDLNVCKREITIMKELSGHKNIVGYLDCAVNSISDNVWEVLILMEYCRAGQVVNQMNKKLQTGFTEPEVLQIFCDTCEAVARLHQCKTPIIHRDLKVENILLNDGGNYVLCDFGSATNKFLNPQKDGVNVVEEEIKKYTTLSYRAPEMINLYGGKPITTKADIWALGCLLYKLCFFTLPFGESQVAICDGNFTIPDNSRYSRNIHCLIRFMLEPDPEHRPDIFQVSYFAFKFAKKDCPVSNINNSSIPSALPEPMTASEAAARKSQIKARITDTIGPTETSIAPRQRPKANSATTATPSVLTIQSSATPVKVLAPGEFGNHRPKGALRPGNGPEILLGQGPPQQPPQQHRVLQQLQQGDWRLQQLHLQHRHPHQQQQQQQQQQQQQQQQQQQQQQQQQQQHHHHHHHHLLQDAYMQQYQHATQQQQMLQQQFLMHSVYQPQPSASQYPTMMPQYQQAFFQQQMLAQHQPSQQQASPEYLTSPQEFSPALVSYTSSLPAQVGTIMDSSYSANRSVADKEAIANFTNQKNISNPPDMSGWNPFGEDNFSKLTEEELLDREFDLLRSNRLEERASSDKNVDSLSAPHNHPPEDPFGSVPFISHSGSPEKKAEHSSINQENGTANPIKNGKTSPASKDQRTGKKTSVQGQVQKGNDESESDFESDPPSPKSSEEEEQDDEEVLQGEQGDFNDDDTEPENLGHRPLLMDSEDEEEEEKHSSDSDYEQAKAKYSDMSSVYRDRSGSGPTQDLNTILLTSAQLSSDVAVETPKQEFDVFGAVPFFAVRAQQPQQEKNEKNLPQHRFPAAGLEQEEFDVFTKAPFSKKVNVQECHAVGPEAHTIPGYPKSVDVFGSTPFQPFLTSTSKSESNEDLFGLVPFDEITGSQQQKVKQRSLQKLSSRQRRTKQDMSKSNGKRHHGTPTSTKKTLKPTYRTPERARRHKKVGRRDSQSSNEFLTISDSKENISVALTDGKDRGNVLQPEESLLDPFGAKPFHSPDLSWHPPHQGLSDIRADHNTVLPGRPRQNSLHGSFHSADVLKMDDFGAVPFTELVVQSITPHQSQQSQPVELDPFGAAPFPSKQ
UniProt Q9NPJ3: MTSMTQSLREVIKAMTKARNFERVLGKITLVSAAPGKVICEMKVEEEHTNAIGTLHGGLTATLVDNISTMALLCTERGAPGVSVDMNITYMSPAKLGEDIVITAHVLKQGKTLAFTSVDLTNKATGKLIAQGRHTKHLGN
UniProt Q9H0H5: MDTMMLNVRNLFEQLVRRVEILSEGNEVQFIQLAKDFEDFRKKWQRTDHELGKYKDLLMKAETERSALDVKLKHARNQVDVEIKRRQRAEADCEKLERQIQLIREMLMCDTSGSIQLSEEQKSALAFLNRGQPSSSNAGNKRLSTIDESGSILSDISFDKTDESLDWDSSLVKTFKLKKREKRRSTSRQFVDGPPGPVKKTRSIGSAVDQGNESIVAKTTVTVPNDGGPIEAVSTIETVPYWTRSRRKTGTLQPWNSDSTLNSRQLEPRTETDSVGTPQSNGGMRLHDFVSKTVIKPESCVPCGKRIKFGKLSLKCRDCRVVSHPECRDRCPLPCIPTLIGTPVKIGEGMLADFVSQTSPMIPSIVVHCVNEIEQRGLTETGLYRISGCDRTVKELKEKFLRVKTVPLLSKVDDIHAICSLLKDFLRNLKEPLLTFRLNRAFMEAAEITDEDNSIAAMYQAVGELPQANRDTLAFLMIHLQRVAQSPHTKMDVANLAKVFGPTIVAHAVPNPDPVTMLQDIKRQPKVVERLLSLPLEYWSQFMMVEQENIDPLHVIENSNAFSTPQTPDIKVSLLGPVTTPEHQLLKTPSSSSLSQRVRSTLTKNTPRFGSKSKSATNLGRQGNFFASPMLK

Compound: Nc1nc2c(ncn2[C@@H]2O[C@H](COP(=O)(O)OP(=O)(O)OP(=O)(O)O)[C@@H](O)[C@H]2O)c(=O)[nH]1 [guanosine triphosphate]
Assay: NP40-soluble protein abundance relative to vehicle (solubility fold change) (ratio); higher = more soluble protein in presence of GTP
Procedure, shortened: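 Each value is a fold change relative to the detergent-processed vehicle, calculated per replicate from vsn-normalised intensities. Jurkat crude lysate received eight concentrations (0.1 to 10 mM) for 10 min at room temperature and 3 min at 37 °C, then was solubilised in 0.8% NP40 with benzonase (60 min, 4 °C). The ultracentrifuged supernatant was TMT-labelled and run by LC-MS/MS in three independent experiments.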

Target	NP40-soluble protein abundance (concentration: 0.1mM)	NP40-soluble protein abundance (concentration: 0.5mM)	NP40-soluble protein abundance (concentration: 1mM)	NP40-soluble protein abundance (concentration: 2mM)	NP40-soluble protein abundance (concentration: 4mM)	NP40-soluble protein abundance (concentration: 6mM)	NP40-soluble protein abundance (concentration: 8mM)	NP40-soluble protein abundance (concentration: 10mM)
UniProt Q9H857 and related entries	1.2 ± 0.13	1.18 ± 0.21	1.04 ± 0.14	1.08 ± 0.19	1.09 ± 0.25	0.973 ± 0.092	0.988 ± 0.084	0.939 ± 0.096
EXOSC3 (UniProt Q9NQT5)	1.1 ± 0.069	1.04 ± 0.08	1.12 ± 0.051	1.18 ± 0.15	1.35 ± 0.14	1.25 ± 0.17	1.32 ± 0.11	1.29 ± 0.11
ARFGAP3 (UniProt Q9NP61)	0.952 ± 0.057	0.929 ± 0.056	0.934 ± 0.092	0.899 ± 0.12	0.885 ± 0.1	0.903 ± 0.12	0.905 ± 0.076	0.916 ± 0.1
UniProt Q9H8Y8 and related entries	0.893 ± 0.088	0.934 ± 0.09	0.911 ± 0.095	0.873 ± 0.087	0.836 ± 0.091	0.858 ± 0.059	0.884 ± 0.091	0.892 ± 0.12
MTIF3 (UniProt Q9H2K0)	1.04 ± 0.046	1.03 ± 0.029	1.16 ± 0.3	1.16 ± 0.054	1.12 ± 0.077	1.21 ± 0.11	1.3 ± 0.12	1.36 ± 0.21
UniProt Q9H6Q4 and related entries	0.99 ± 0.07	1.03 ± 0.051	1.01 ± 0.067	0.976 ± 0.044	0.991 ± 0.059	0.94 ± 0.022	0.933 ± 0.042	0.931 ± 0.066
ISCU (UniProt Q9H1K1)	0.893 ± 0.03	0.888 ± 0.043	0.92 ± 0.041	0.906 ± 0.084	0.893 ± 0.076	0.909 ± 0.093	0.898 ± 0.056	0.946 ± 0.043
ANAPC1 (UniProt Q9H1A4)	1.13 ± 0.17	1.24 ± 0.23	1.15 ± 0.23	1.23 ± 0.29	1.21 ± 0.26	1.24 ± 0.29	1.19 ± 0.26	1.14 ± 0.31
UniProt Q9H3U1-2	0.977 ± 0.015	0.949 ± 0.028	0.926 ± 0.018	0.9 ± 0.036	0.895 ± 0.023	0.889 ± 0.053	0.894 ± 0.026	0.877 ± 0.038
TM7SF3 (UniProt Q9NS93)	1.01 ± 0.14	1.03 ± 0.041	1.07 ± 0.11	1.05 ± 0.14	1 ± 0.073	0.986 ± 0.015	1.01 ± 0.08	1.01 ± 0.084
MED4 (UniProt Q9NPJ6)	1 ± 0.067	0.96 ± 0.074	1.06 ± 0.057	1.05 ± 0.1	1.08 ± 0.11	1.12 ± 0.056	1.11 ± 0.053	1.09 ± 0.12
REXO4 (UniProt Q9GZR2)	0.974 ± 0.054	0.964 ± 0.087	0.996 ± 0.072	0.994 ± 0.086	1.01 ± 0.065	1.08 ± 0.098	1.07 ± 0.081	1.09 ± 0.088
UniProt Q9NPA3	1.03 ± 0.047	1.03 ± 0.037	0.944 ± 0.078	0.992 ± 0.07	1.06 ± 0.046	1.04 ± 0.015	0.992 ± 0.078	0.987 ± 0.048
EML4 (UniProt Q9HC35)	0.994 ± 0.038	0.986 ± 0.05	0.944 ± 0.088	0.941 ± 0.082	0.917 ± 0.089	0.943 ± 0.064	0.95 ± 0.049	0.943 ± 0.062
ACTR5 (UniProt Q9H9F9)	0.9 ± 0.13	1.04 ± 0.074	1.07 ± 0.03	1.13 ± 0.031	1.14 ± 0.093	1.18 ± 0.15	1.17 ± 0.1	1.25 ± 0.2
DDX21 (UniProt Q9NR30)	1.11 ± 0.027	1.1 ± 0.048	1.18 ± 0.026	1.32 ± 0.019	1.56 ± 0.018	1.82 ± 0.028	2.13 ± 0.038	2.698 ± 0.024
RDH14 (UniProt Q9HBH5)	1.04 ± 0.077	1.04 ± 0.068	0.973 ± 0.086	1.01 ± 0.083	1.01 ± 0.085	0.959 ± 0.062	0.958 ± 0.089	0.939 ± 0.1
AASDHPPT (UniProt Q9NRN7)	1.02 ± 0.025	1.03 ± 0.059	0.884 ± 0.025	0.883 ± 0.041	0.878 ± 0.024	0.855 ± 0.034	0.804 ± 0.066	0.807 ± 0.075
PARVG (UniProt Q9HBI0)	1.09 ± 0.11	1.04 ± 0.055	1.09 ± 0.047	1.02 ± 0.022	0.994 ± 0.073	0.991 ± 0.06	0.992 ± 0.053	0.919 ± 0.086
UniProt Q9H7B4 and related entries	1.04 ± 0.088	1.03 ± 0.043	0.949 ± 0.063	0.967 ± 0.079	0.977 ± 0.052	0.931 ± 0.058	0.943 ± 0.049	0.942 ± 0.059
UniProt Q9GZN8 and related entries	1.09 ± 0.02	0.998 ± 0.021	1.064 ± 0.01	0.9909 ± 0.0088	1.09 ± 0.044	0.9681 ± 0.0027	1 ± 0.077	0.936 ± 0.072
TFB2M (UniProt Q9H5Q4)	1.01 ± 0.021	1.01 ± 0.032	0.983 ± 0.014	0.979 ± 0.044	1.01 ± 0.019	0.945 ± 0.029	0.961 ± 0.023	0.943 ± 0.061
PTPN23 (UniProt Q9H3S7)	0.991 ± 0.03	0.984 ± 0.035	0.955 ± 0.041	0.959 ± 0.041	0.941 ± 0.048	0.936 ± 0.044	0.926 ± 0.066	0.93 ± 0.062
UniProt Q9NSY1	1.11 ± 0.11	1.14 ± 0.048	1.21 ± 0.058	1.18 ± 0.044	1.25 ± 0.079	1.27 ± 0.035	1.34 ± 0.079	1.35 ± 0.13
UniProt Q9NPJ3 and related entries	0.914 ± 0.12	0.914 ± 0.074	0.852 ± 0.076	0.821 ± 0.058	0.783 ± 0.048	0.818 ± 0.053	0.785 ± 0.076	0.767 ± 0.056
CDT1 (UniProt Q9H211)	0.913 ± 0.082	0.929 ± 0.11	0.945 ± 0.067	0.943 ± 0.022	0.961 ± 0.028	0.972 ± 0.051	0.984 ± 0.004	1 ± 0.11
RACGAP1 (UniProt Q9H0H5)	1.08 ± 0.031	1.1 ± 0.047	1.11 ± 0.065	1.13 ± 0.052	1.14 ± 0.05	1.14 ± 0.05	1.16 ± 0.053	1.15 ± 0.043
WDR12 (UniProt Q9GZL7)	1.05 ± 0.037	1.05 ± 0.044	0.954 ± 0.03	0.978 ± 0.081	0.949 ± 0.065	0.939 ± 0.051	0.92 ± 0.056	0.9 ± 0.1
ZDHHC18 (UniProt Q9NUE0)	1.14 ± 0.17	1.17 ± 0.091	1.24 ± 0.062	1.24 ± 0.14	1.17 ± 0.1	1.2 ± 0.13	1.02 ± 0.041	1.1 ± 0.16
RAB1B (UniProt Q9H0U4)	0.936 ± 0.021	0.96 ± 0.029	0.915 ± 0.034	0.859 ± 0.047	0.82 ± 0.053	0.857 ± 0.06	0.842 ± 0.057	0.807 ± 0.072

Nothing new here: an excerpt of the list.
Target	NP40-soluble protein abundance (concentration: 0.1mM)	NP40-soluble protein abundance (concentration: 0.5mM)	NP40-soluble protein abundance (concentration: 1mM)	NP40-soluble protein abundance (concentration: 2mM)	NP40-soluble protein abundance (concentration: 4mM)	NP40-soluble protein abundance (concentration: 6mM)	NP40-soluble protein abundance (concentration: 8mM)	NP40-soluble protein abundance (concentration: 10mM)
ANAPC1 (UniProt Q9H1A4)	1.13 ± 0.17	1.24 ± 0.23	1.15 ± 0.23	1.23 ± 0.29	1.21 ± 0.26	1.24 ± 0.29	1.19 ± 0.26	1.14 ± 0.31
UniProt Q9H3U1-2	0.977 ± 0.015	0.949 ± 0.028	0.926 ± 0.018	0.9 ± 0.036	0.895 ± 0.023	0.889 ± 0.053	0.894 ± 0.026	0.877 ± 0.038
